This note sets out measurements from the supplement of paper PMC12819154, “High-throughput peptide-centric local stability assay extends protein–ligand identification to membrane proteins, tissues and bacteria” (Nature Structural & Molecular Biology, 2025).

The chains behind the UniProt entries cited, without tags or fusion partners. Where a name states a change or a piece, a line headed by the entry shows the natural chain unless it says otherwise.
UniProt Q9H410: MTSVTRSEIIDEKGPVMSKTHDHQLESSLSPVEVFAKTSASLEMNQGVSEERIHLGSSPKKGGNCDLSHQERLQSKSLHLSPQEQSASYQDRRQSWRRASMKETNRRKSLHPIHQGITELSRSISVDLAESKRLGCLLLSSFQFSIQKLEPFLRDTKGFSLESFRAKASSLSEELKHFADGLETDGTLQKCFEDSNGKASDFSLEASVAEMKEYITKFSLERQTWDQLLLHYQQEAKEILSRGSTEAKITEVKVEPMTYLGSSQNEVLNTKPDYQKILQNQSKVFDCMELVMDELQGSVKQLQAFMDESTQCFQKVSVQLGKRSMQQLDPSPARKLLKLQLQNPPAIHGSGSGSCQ
UniProt Q9BYX4: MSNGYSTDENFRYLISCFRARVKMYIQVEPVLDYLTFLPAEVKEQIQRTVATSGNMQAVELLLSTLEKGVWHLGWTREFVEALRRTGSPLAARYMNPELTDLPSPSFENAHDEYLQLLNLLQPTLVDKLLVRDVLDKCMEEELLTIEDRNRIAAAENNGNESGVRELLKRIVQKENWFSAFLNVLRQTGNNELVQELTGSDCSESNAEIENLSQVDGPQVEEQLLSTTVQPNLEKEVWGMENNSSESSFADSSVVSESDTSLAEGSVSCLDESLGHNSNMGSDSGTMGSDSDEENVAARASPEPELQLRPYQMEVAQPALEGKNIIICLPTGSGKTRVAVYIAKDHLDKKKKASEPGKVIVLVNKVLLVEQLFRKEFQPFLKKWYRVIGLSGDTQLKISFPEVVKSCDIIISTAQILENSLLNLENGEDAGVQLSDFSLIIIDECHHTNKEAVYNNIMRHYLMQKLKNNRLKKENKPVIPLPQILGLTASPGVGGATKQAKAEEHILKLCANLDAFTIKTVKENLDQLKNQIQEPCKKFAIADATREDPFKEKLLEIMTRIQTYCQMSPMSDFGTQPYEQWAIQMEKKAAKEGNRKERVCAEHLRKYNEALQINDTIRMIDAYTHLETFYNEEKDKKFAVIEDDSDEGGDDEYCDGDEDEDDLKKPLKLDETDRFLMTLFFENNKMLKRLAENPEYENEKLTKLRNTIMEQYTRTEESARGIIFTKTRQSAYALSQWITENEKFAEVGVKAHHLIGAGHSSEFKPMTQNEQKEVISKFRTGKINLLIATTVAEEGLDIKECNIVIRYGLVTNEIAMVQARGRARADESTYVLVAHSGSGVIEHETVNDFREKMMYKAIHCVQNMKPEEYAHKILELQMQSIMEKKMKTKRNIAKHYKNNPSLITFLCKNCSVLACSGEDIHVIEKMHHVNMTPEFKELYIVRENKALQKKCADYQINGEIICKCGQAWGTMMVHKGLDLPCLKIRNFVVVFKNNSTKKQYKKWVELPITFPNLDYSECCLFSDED
UniProt Q9BZV1: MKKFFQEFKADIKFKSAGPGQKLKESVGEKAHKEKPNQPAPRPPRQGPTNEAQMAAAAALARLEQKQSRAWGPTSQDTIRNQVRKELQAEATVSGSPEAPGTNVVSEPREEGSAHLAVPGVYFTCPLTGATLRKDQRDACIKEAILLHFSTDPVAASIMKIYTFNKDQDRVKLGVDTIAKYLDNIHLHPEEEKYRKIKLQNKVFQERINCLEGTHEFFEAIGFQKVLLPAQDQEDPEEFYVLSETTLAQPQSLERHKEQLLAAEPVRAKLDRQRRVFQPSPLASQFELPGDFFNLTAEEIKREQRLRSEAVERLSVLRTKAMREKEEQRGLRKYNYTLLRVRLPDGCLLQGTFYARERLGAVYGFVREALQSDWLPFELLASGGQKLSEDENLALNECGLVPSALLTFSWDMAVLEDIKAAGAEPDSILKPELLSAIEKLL
UniProt Q9H019: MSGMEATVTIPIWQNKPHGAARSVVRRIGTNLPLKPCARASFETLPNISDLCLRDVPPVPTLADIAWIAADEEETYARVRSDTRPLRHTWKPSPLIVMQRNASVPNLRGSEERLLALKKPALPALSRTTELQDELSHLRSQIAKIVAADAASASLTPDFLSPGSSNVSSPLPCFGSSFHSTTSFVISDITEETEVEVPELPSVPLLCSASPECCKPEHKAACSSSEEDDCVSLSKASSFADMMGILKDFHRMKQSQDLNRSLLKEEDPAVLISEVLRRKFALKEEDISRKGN
UniProt Q9H3Q1: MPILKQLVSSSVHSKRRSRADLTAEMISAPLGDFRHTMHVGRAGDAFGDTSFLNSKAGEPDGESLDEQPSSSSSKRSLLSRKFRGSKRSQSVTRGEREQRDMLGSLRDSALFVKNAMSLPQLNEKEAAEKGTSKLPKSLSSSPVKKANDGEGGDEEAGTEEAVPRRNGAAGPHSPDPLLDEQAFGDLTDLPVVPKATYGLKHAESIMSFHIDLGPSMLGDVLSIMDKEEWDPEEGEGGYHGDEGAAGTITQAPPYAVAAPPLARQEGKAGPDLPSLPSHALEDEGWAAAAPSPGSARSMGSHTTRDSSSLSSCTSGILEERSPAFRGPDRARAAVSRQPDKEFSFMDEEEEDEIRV
UniProt Q9H0W5: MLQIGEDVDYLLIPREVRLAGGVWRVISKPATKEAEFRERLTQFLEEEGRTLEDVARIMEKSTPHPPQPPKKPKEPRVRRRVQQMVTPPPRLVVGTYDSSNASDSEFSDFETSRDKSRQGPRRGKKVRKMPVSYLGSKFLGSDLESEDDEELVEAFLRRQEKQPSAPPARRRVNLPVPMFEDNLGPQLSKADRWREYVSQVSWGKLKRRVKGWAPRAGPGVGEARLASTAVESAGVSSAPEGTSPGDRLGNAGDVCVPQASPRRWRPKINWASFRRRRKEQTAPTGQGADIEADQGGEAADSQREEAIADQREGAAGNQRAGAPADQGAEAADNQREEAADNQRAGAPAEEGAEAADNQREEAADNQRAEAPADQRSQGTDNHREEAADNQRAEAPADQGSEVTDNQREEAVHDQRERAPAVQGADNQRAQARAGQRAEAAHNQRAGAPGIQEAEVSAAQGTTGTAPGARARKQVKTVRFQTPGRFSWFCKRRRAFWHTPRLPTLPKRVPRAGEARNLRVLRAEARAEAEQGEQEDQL
UniProt Q9BWH2: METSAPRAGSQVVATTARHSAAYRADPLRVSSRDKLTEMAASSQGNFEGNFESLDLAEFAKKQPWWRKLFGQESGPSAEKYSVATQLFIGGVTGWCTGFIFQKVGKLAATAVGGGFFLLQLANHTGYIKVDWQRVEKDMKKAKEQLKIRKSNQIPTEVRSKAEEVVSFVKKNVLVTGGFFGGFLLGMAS
UniProt Q9H0U4: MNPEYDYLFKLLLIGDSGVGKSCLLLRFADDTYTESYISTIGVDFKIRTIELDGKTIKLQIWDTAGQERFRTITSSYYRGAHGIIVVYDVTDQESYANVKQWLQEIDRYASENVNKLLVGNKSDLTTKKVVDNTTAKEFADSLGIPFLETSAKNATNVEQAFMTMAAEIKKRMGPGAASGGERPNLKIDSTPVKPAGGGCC
UniProt Q9H446: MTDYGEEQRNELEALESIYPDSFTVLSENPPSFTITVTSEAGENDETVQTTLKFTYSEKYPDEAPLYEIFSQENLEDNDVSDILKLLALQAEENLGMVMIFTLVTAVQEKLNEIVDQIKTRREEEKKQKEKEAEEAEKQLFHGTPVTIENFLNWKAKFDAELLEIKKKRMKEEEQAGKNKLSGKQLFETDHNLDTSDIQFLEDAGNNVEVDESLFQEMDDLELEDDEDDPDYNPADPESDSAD
UniProt Q9BY42: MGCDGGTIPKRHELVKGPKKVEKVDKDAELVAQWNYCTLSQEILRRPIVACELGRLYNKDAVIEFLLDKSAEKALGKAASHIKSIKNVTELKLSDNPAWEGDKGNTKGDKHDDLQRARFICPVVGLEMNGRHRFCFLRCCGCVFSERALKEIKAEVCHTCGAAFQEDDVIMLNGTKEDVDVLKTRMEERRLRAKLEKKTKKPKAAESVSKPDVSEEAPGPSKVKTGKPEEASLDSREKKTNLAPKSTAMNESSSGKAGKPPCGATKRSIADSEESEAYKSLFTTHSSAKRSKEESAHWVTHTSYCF
UniProt Q9BXD5: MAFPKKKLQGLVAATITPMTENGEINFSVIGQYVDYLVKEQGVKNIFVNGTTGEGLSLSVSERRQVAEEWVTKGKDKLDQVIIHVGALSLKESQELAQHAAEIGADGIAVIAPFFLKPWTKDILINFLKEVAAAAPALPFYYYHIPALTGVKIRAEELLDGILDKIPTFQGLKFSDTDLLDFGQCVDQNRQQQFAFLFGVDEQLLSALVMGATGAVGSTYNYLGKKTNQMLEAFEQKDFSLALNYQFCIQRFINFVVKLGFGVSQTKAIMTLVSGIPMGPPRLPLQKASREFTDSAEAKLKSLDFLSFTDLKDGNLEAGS
UniProt Q9BXW7: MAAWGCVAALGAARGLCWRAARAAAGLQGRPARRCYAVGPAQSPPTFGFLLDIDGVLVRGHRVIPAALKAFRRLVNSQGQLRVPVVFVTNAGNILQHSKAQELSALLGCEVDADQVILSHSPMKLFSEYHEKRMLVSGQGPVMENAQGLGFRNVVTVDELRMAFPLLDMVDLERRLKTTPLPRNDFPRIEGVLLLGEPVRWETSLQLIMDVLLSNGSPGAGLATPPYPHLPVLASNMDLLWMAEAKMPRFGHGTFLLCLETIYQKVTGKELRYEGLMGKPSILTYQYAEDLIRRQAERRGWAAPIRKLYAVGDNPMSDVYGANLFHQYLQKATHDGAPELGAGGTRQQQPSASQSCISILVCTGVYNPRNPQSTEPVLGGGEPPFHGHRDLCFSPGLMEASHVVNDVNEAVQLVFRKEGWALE
UniProt Q9H3R0: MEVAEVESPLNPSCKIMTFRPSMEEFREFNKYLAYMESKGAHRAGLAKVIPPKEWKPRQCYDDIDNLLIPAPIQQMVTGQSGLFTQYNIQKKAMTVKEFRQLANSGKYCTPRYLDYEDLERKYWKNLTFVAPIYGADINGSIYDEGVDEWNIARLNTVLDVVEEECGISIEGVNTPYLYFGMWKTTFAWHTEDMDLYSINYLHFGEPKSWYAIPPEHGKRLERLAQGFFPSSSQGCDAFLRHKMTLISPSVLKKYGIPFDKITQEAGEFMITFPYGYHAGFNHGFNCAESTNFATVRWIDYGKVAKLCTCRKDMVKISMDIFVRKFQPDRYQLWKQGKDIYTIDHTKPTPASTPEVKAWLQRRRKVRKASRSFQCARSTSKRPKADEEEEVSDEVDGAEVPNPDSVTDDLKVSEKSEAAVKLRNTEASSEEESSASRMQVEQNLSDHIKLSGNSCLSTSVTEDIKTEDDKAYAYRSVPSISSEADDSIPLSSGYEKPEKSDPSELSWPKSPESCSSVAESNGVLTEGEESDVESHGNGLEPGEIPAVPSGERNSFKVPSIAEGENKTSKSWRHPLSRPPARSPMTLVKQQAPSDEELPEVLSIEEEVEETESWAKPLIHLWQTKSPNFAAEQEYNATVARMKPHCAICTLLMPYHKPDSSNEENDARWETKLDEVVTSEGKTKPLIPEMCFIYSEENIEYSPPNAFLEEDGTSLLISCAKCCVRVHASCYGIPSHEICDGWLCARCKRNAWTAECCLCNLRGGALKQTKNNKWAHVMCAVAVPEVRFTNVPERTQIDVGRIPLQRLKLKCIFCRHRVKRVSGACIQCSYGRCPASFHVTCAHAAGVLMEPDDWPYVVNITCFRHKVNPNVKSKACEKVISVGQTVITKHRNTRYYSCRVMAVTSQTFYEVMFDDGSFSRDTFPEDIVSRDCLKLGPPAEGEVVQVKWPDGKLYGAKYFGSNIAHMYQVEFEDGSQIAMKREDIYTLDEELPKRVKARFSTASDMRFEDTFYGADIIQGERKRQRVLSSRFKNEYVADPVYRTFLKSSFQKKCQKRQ
UniProt Q9C037: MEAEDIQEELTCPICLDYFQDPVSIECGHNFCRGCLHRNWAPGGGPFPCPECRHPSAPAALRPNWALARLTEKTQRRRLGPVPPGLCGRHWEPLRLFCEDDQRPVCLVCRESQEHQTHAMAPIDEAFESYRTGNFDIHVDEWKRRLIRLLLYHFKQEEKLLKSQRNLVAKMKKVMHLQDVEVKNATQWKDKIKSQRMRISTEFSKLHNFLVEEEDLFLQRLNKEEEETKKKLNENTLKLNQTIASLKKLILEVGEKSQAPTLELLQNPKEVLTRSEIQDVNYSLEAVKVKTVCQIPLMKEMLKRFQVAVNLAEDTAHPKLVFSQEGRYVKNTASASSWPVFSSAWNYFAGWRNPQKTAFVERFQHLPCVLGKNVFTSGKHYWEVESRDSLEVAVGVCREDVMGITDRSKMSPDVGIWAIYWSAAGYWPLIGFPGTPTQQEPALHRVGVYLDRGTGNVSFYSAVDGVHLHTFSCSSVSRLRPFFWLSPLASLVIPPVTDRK
UniProt Q9H467: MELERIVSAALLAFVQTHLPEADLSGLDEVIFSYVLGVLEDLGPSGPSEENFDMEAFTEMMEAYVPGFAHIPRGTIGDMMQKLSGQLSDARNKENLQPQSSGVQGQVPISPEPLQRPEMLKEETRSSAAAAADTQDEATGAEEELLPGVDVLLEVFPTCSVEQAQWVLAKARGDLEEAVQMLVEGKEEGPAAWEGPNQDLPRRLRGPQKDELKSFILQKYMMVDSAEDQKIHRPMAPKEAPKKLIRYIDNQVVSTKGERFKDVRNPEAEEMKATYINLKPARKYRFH

Compound in the experiment: CN[C@@H]1C[C@H]2O[C@@](C)([C@@H]1OC)n1c3ccccc3c3c4c(c5c6ccccc6n2c5c31)C(=O)NC4 [staurosporine]
Put plainly: log2 fold change of tryptic peptide abundance, ligand vs vehicle (limited proteolysis) (log2 ratio); higher = more trypsin-susceptible (destabilized). The note with it: ligand concentration: 20 uM; sample: K562 cleared lysate; digestion: 4 min, 22 C (HT-PELSA RT4min, Orbitrap Astral).

This is one part of the list. Most values lie at the level of the controls, where differences are scatter.

“DSN1 (peptide sequence: SMQQLDPSPARK, peptide start residue: 324) (UniProt Q9H410)”: the log2 fold change was 0.442. As to “UniProt Q9BYG3 (peptide sequence: VSGTLDTPEK, peptide start residue: 217)”, the log2 fold change is -0.152. With “EGLN1 (peptide sequence: AKPPADPAAAASPCR, peptide start residue: 114) (UniProt Q9GZT9)” the figure was -0.221; with “CDADC1 (peptide sequence: HGPLGDNEER, peptide start residue: 66) (UniProt Q9BWV3)”, -0.21; with “IFIH1 (peptide sequence: VLLVEQLFR, peptide start residue: 366) (UniProt Q9BYX4)”, -0.0465.

With “C12orf65 (peptide sequence: VDVFYNGENSPVHK, peptide start residue: 116) (UniProt Q9H3J6)”, the log2 fold change was -0.3. In the case of “UBXN6 (peptide sequence: YLDNIHLHPEEEKYR, peptide start residue: 181) (UniProt Q9BZV1)”, the log2 fold change is -0.391. “UniProt Q9BZR9 (peptide sequence: FCSENAAQALHLGER, peptide start residue: 261)”: the log2 fold change was -0.526. The same measure for “MRPL1 (peptide sequence: EVKNEESEKEDA, peptide start residue: 314) (UniProt Q9BYD6)”: -0.297; for “UniProt Q9H019 (peptide sequence: KPALPALSR, peptide start residue: 119)”: 0.642. The same measure for “CDC42EP4 (peptide sequence: SMGSHTTR, peptide start residue: 298) (UniProt Q9H3Q1)”: 0.443.

For “EDEM3 (peptide sequence: HNFLPEAFTTDFR, peptide start residue: 382) (UniProt Q9BZQ6)”, the log2 fold change is -0.249. The same measure for “UniProt Q9H0A6 (peptide sequence: PPPLTLAQK, peptide start residue: 86)”: -0.0253. Regarding “OSBPL11 (peptide sequence: VVLPTFILEKR, peptide start residue: 386) (UniProt Q9BXB4)”, the log2 fold change is 0.847.

On to “MAF1 (peptide sequence: SQGGEEEGPLSDK, peptide start residue: 75) (UniProt Q9H063)”, for which the log2 fold change was determined as 0.466. The same measure for “CCDC8 (peptide sequence: INWASFR, peptide start residue: 269) (UniProt Q9H0W5)”: -0.246; for “ISCU (peptide sequence: GKTVEEALTIK, peptide start residue: 111) (UniProt Q9H1K1)”: 0.344; for “FUNDC2 (peptide sequence: AGSQVVATTAR, peptide start residue: 8) (UniProt Q9BWH2)”: -0.158. The same measure for “MRPL37 (peptide sequence: ESLLLQVR, peptide start residue: 216) (UniProt Q9BZE1)”: 0.265; for “DHX36 (peptide sequence: AVVHMDER, peptide start residue: 83) (UniProt Q9H2U1)”: -0.31; for “EIF5A2 (peptide sequence: IVEMSTSK, peptide start residue: 40) (UniProt Q9GZV4)”: -0.123. With “RAB1B (peptide sequence: MGPGAASGGERPNLK, peptide start residue: 173) (UniProt Q9H0U4)” the figure was 0.562. For the target “TLNRD1 (peptide sequence: NSACAVSEGCTLLSQALR, peptide start residue: 328) (UniProt Q9H1K6)”, the log2 fold change turned out to be 0.3. With “RWDD1 (peptide sequence: AKFDAELLEIK, peptide start residue: 156) (UniProt Q9H446)” the figure was -0.118; with “REXO4 (peptide sequence: QKSQAPEKPLVISQMGSK, peptide start residue: 80) (UniProt Q9GZR2)”, 0.627; with “RAB33B (peptide sequence: IQLWDTAGQER, peptide start residue: 84) (UniProt Q9H082)”, 0.193. The same measure for “UniProt Q9C0B2 (peptide sequence: TQAFHLR, peptide start residue: 72)”: 0.266; for “GHITM (peptide sequence: VATMLATGGNR, peptide start residue: 333) (UniProt Q9H3K2)”: 0.472; for “SHARPIN (peptide sequence: SPGNLTEREELAGSLAR, peptide start residue: 165) (UniProt Q9H0F6)”: -0.181.

For “WNK3 (peptide sequence: KCIVLVTELMTSGTLK, peptide start residue: 295) (UniProt Q9BYP7)”, the log2 fold change was -0.355. Regarding “FANCD2 (peptide sequence: QLVMDKLSSIR, peptide start residue: 264) (UniProt Q9BXW9)”, the log2 fold change came out at 0.356. The same measure for “SGPP1 (peptide sequence: NGLAAELGPASPR, peptide start residue: 91) (UniProt Q9BX95)”: -0.131; for “POLR3F (peptide sequence: EGTVGSVDGHMK, peptide start residue: 257) (UniProt Q9H1D9)”: 0.432; for “UniProt Q9C0B9 (peptide sequence: ANGLSDPGPLADFREPAVR, peptide start residue: 152)”: -0.471. With “UniProt Q9BY42 (peptide sequence: PPCGATKR, peptide start residue: 260)” the figure was -0.824; with “SIL1 (peptide sequence: LLVILATEQPLTAKK, peptide start residue: 273) (UniProt Q9H173)”, 0.759. On to “UniProt Q9BZF2 (peptide sequence: AGCKPFNPVLGETYECERPDR, peptide start residue: 551)”, for which the log2 fold change was -1.31.

For the target “TXNIP (peptide sequence: GNHIISGTCASWR, peptide start residue: 239) (UniProt Q9H3M7)”, the log2 fold change was -0.0874.

As for “OSBPL2 (peptide sequence: ASCQPQPLER, peptide start residue: 120) (UniProt Q9H1P3)”, the log2 fold change was 0.942. Consider “DDX24 (peptide sequence: CLVVDEADRMVEK, peptide start residue: 467) (UniProt Q9GZR7)”, for which the log2 fold change is -0.257.

Take “ARL6 (peptide sequence: EGQAIIFVIDSSDRLR, peptide start residue: 86) (UniProt Q9H0F7)”: the log2 fold change was 0.0767.

For the target “CARD9 (peptide sequence: NPHDAGLSSGEPPEKER, peptide start residue: 476) (UniProt Q9H257)”, the log2 fold change is -0.145. For the target “NPL (peptide sequence: GKDKLDQVIIHVGALSLK, peptide start residue: 74) (UniProt Q9BXD5)”, the log2 fold change stood at 0.798.

In the case of “UniProt Q9H330 (peptide sequence: AVGPSGGGGETPR, peptide start residue: 26)”, the log2 fold change was -0.0016.

With “UniProt Q9BXW7 (peptide sequence: NVVTVDELR, peptide start residue: 153)”, the log2 fold change worked out at 0.265. In the case of “UniProt Q9H0K1 (peptide sequence: QRRPSTIAEQTVAK, peptide start residue: 354)”, the log2 fold change stood at 0.853. The same measure for “KDM4C (peptide sequence: VISVGQTVITK, peptide start residue: 878) (UniProt Q9H3R0)”: -0.688; for “DPY30 (peptide sequence: AQFEDRN, peptide start residue: 93) (UniProt Q9C005)”: -0.171; for “NLN (peptide sequence: VTAFLDDLSQK, peptide start residue: 315) (UniProt Q9BYT8)”: -0.162. For the target “WDR61 (peptide sequence: LWDLENGK, peptide start residue: 90) (UniProt Q9GZS3)”, the log2 fold change was 0.275. The same measure for “GAN (peptide sequence: EVISLEKLNVGNER, peptide start residue: 180) (UniProt Q9H2C0)”: 0.548; for “TRIM4 (peptide sequence: LNQTIASLKK, peptide start residue: 239) (UniProt Q9C037)”: -0.228. The same measure for “TRIOBP (peptide sequence: LSDSNKENALHSYSTQK, peptide start residue: 1897) (UniProt Q9H2D6)”: -0.799; for “TOLLIP (peptide sequence: CSEEDLK, peptide start residue: 229) (UniProt Q9H0E2)”: -0.178; for “NDEL1 (peptide sequence: ISALNIVGDLLRK, peptide start residue: 251) (UniProt Q9GZM8)”: 0.308.

On to “UNC45A (peptide sequence: KSLKDPNNSLTLWVIDQGLK, peptide start residue: 326) (UniProt Q9H3U1)”, for which the log2 fold change is -0.186.

In the case of “DOCK9 (peptide sequence: EVGTALQEFR, peptide start residue: 1121) (UniProt Q9BZ29)”, the log2 fold change is 0.347.

As to “BLZF1 (peptide sequence: NTAQLSEQLER, peptide start residue: 197) (UniProt Q9H2G9)”, the log2 fold change was found to be 0.556. With “FBXL15 (peptide sequence: SLVQLHLAGLRR, peptide start residue: 53) (UniProt Q9H469)” the figure was 0.437; with “CUEDC2 (peptide sequence: ARGDLEEAVQMLVEGK, peptide start residue: 171) (UniProt Q9H467)”, -0.325; with “SPRY4 (peptide sequence: LLDHMAPPPVADQASPR, peptide start residue: 111) (UniProt Q9C004)”, 0.206. Consider “UniProt Q9BZL1 (peptide sequence: VKCNTDDTIGDLKK, peptide start residue: 16)”, for which the log2 fold change stood at 0.199.
